Source: article PMC9616806
These are yes or no findings as the source states them, for the method shown. Binding seen in cells or lysates may run through a third protein. These calls come from enrichment with a bait or labelling near it, and not all partners need be listed.

Sequences of proteins named here, by UniProt entry; tags and fusion partners are left off.
UniProt E9Q6J5: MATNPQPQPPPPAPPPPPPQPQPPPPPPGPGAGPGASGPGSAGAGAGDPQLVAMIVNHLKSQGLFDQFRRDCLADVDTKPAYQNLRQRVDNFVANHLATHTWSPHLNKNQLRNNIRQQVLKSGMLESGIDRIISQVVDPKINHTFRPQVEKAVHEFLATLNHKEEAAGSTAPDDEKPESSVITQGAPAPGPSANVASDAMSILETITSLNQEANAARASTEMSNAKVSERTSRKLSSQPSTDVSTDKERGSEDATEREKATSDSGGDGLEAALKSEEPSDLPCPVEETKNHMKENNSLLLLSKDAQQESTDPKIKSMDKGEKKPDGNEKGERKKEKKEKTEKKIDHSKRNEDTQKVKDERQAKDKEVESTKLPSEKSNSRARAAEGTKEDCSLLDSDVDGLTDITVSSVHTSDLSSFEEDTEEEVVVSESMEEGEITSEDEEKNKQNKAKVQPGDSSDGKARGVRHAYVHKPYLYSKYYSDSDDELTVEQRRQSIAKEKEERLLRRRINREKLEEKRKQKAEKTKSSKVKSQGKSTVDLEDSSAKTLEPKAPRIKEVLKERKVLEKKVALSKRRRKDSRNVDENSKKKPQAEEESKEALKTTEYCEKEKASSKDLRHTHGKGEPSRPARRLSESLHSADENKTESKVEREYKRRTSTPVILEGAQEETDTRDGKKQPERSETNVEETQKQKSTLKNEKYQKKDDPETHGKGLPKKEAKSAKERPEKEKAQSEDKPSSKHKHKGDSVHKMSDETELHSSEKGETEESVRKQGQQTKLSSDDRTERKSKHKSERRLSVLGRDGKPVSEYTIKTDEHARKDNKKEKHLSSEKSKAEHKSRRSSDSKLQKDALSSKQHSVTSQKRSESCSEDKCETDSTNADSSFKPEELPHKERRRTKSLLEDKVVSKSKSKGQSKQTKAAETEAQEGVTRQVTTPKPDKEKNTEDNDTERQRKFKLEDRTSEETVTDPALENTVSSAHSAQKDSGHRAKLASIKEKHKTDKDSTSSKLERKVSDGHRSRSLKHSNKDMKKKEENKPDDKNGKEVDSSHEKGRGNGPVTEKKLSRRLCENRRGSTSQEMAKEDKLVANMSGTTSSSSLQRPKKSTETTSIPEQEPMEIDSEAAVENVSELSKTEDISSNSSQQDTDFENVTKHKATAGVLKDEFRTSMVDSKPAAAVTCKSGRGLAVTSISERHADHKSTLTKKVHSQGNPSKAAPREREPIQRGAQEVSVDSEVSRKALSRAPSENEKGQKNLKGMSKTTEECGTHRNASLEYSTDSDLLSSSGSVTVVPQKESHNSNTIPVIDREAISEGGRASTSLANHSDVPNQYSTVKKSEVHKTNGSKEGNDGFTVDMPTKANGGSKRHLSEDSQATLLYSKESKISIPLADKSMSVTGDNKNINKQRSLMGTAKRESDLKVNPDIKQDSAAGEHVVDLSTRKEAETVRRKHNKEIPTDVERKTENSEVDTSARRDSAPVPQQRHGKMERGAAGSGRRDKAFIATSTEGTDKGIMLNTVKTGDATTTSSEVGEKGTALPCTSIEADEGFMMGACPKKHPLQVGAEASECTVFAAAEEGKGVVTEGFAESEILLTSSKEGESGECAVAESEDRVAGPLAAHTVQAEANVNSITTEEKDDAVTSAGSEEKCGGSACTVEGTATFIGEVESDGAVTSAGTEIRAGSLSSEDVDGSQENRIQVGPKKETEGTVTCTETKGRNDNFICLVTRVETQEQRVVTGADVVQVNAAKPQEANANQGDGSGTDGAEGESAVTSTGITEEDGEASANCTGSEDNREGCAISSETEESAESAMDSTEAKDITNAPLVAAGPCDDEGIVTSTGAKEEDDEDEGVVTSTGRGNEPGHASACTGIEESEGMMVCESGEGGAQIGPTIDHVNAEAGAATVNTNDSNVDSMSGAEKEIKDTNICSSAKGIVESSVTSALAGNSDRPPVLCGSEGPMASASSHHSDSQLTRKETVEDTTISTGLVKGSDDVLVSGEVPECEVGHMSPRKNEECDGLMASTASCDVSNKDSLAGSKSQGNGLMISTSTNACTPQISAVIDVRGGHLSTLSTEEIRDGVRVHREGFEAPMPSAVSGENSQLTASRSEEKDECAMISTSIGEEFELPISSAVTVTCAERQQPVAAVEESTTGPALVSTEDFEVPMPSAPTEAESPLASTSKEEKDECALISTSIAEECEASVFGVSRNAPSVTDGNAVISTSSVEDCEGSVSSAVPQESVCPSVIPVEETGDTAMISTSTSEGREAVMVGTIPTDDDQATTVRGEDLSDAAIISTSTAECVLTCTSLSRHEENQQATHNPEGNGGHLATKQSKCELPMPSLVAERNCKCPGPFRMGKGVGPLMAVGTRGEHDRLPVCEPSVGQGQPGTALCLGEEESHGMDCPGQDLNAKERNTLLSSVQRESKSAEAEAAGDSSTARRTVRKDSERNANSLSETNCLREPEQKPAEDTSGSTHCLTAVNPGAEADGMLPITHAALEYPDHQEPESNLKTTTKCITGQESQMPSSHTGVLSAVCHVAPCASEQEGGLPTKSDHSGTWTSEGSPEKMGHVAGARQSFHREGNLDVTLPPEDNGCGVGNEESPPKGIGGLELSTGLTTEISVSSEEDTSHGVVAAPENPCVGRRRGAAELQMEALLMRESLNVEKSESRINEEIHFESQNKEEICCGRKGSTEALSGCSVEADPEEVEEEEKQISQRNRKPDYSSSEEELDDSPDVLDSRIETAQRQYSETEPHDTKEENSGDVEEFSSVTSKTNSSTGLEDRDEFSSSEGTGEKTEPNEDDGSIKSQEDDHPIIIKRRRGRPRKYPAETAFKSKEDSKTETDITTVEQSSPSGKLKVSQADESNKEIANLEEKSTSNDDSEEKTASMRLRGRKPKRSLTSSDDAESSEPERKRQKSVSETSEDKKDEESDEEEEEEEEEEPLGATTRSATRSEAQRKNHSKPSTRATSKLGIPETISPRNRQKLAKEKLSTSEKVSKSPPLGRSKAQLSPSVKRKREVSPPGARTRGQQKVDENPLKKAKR
UniProt Q9UBL3: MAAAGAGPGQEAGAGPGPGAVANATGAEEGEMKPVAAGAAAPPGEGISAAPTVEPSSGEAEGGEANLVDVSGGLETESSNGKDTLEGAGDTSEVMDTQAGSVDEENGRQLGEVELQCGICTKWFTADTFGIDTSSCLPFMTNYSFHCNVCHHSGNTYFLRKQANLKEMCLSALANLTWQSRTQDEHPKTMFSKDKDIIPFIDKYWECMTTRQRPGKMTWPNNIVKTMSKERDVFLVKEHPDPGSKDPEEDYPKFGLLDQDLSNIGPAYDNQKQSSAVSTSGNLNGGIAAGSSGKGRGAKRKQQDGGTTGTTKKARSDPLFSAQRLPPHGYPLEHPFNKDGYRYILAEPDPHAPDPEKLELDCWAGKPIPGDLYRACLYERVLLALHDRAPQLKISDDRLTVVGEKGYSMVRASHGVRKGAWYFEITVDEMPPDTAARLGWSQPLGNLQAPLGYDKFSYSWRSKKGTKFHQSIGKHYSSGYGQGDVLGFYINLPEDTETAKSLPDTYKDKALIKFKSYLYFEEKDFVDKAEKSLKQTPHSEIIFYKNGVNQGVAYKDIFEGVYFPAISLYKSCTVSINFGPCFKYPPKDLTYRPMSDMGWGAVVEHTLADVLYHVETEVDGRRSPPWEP
UniProt Q15291: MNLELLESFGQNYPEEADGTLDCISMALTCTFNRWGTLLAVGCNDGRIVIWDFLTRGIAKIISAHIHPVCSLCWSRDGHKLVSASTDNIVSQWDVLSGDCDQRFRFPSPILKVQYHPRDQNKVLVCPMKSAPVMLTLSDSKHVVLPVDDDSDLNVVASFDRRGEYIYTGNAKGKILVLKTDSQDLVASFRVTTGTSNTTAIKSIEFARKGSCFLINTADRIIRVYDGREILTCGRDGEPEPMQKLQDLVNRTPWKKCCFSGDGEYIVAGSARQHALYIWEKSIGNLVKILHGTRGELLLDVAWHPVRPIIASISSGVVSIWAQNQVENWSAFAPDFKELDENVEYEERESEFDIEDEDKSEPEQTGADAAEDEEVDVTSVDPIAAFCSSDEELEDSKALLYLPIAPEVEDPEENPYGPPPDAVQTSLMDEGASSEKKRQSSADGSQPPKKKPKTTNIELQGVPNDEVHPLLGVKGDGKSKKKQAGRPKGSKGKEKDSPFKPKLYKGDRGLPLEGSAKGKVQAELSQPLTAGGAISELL
UniProt O15047: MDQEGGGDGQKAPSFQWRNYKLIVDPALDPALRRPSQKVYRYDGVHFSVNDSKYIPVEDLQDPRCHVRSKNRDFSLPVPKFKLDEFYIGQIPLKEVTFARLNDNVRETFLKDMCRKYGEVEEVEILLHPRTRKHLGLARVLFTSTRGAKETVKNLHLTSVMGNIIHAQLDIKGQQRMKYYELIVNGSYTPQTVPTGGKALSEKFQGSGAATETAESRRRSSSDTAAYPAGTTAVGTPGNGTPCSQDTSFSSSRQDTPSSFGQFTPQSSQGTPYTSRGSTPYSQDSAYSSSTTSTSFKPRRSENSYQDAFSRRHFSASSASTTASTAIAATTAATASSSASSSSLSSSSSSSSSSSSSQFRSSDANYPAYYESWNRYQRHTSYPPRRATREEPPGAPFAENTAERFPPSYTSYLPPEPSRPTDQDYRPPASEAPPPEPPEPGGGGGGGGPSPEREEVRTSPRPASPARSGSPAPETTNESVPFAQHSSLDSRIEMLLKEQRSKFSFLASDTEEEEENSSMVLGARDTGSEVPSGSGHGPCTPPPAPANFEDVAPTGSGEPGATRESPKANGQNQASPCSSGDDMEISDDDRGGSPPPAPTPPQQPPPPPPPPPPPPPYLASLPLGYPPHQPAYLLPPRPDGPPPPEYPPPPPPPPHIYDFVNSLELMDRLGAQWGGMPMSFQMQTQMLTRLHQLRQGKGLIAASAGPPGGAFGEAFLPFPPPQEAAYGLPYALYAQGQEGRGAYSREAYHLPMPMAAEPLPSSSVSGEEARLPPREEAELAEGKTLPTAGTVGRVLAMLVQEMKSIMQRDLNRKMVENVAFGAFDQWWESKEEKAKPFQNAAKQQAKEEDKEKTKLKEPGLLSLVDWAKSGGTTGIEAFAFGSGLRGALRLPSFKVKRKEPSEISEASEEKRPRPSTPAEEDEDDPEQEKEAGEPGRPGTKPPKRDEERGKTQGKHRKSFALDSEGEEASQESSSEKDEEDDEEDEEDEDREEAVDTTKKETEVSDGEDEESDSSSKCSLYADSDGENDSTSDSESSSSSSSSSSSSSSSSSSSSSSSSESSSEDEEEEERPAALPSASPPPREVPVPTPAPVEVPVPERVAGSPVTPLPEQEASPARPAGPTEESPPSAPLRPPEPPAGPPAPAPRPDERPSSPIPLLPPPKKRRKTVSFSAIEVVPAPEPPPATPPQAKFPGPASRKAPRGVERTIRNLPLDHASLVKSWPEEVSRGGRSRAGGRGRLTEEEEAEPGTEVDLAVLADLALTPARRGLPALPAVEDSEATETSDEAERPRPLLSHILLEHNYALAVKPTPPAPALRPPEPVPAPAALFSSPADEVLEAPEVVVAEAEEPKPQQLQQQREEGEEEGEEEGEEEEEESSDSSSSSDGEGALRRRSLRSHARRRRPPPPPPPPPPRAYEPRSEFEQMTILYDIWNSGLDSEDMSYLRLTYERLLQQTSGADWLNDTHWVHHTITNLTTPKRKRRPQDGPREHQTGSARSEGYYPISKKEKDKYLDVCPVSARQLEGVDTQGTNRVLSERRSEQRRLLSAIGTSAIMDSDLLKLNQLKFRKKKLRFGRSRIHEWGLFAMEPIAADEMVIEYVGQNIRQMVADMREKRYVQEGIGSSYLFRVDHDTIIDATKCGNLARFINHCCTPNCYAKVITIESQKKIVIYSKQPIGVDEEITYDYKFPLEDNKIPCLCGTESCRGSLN
UniProt Q9P0U4: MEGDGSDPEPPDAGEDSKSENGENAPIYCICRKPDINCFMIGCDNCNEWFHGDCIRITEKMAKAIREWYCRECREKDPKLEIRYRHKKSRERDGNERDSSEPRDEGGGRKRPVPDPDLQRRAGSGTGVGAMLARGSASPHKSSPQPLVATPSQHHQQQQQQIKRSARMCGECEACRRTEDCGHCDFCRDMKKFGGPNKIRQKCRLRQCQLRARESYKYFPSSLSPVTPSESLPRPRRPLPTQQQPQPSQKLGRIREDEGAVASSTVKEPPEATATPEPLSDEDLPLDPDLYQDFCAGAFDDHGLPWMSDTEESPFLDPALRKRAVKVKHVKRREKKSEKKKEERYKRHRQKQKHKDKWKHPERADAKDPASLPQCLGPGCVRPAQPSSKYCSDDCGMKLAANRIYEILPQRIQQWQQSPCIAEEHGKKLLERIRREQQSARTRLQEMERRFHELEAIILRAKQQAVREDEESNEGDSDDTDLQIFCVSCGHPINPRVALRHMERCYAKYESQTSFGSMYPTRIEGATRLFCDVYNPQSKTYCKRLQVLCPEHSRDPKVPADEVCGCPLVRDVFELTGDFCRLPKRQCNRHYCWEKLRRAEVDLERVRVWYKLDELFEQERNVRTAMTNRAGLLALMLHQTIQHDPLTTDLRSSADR

Molecular target: murine BOD1L-GFP (mouse) (UniProt E9Q6J5)
Test: affinity purification with mass spectrometry; lysates of HeLa-C-Flap-BOD1L cells (control HeLa-C-Flap) in benzonase lysis buffer, anti-Flag affinity agarose 4 h at 4 C, washes with 300 mM NaCl, 1% CHAPS; gel slices, trypsin, Orbitrap

Substance	binding
ASH2L (from UniProt Q9UBL3 1-628)	binds
RIF1 (from UniProt Q5UIP0 1-2472)	binds
RBBP5 (from UniProt Q15291 1-538)	binds
SETD1A (from UniProt O15047 1-1707)	binds
CXXC1 (from UniProt Q9P0U4 1-656)	binds
